From patent US20150322131A1
Results are given in words; binding and its absence hold for the method and conditions named. Some binding calls cover weakened binding; strength is not graded here.

What was measured:
[1] = molecular target: Insulin like growth factor 1 receptor (IGF-1R) of CHO cells (Chinese hamster); experiment: FACS staining of pZFN-transfected CHO-DUXB11 derivative cells with the labelled ligand
[2] = molecular target: Insulin like growth factor 1 receptor (IGF-1R) of CHO cells (Chinese hamster); experiment: FACS staining and sorting of shRNA-transfected CHO-DUXB11 derived cells with the labelled ligand

“Cy5 labeled hIGF-1Ea 3mut (from UniProt P17647 29-130) (ligand)” was tested, and the binding [1] was “binds” and the binding [2] was “binds”.
